Measurements reported in PubChem BioAssay AID720710 (VTT Finland, 2013).
Shown is a random part of about 1,380 reagents. 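One array per condition without replicates; hydroxyurea arrays received 2 mM for 16 h plus 3 h recovery.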 Reagents against one gene are numbered here.

Purpose: 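Knock-downs that leave cyclin E-high cells sensitive to replication stress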 (primary screen)
Cell system: human U-2 OS bone cancer cells, parental and a cyclin E (CCNE1) overexpressing line
Reagents: single siRNA against human genes, 1 µM siRNA in the printed spot mix
Time to read-out: 67 h
Treatment: half the arrays: hydroxyurea 2 mM for 16 h, then 3 h recovery; other arrays untreated
Detection: 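DNA synthesis measured as imaged EdU uptake per nucleus (DAPI) at 67 h, normalised to subgrid median and given as z-score versus non-targeting controls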
Direction: EdU z-score, cyclin E line, hydroxyurea and EdU z-score, parental, hydroxyurea and EdU z-score, cyclin E line, untreated and EdU z-score, parental, untreated: higher = more DNA synthesis than non-targeting controls

target gene | reagent | EdU z-score, cyclin E line, hydroxyurea | EdU z-score, parental, hydroxyurea | EdU z-score, cyclin E line, untreated | EdU z-score, parental, untreated
WDR33 (WD repeat domain 33) | 1 | -0.439 | -0.989 | -4.5 | -2.5
WDR33 (WD repeat domain 33) | 2 | 0.347 | -0.0765 | -1.09 | -0.185
TNKS2 (tankyrase 2) | 1 | -0.596 | -3.91 | -1.03 | -1.69
TNKS2 (tankyrase 2) | 2 | 0.461 | 1.3 | 1.34 | -0.667
ANKRD17 (ankyrin repeat domain 17) | 1 | 0.22 | -0.818 | -2.13 | -3.45
ANKRD17 (ankyrin repeat domain 17) | 2 | 1.53 | 0.44 | -0.973 | -1.11
FOXN3 (forkhead box N3) | 1 | -0.351 | 0.193 | -0.218 | -1.78
FOXN3 (forkhead box N3) | 2 | 0.106 | 2.7 | 0.254 | 0.0548
PRIM2 (DNA primase subunit 2) | 1 | -0.296 | -2.38 | -3.43 | -1.65
PRIM2 (DNA primase subunit 2) | 2 | -0.122 | 1.41 | -0.901 | 0.189
DNTT (DNA nucleotidylexotransferase) | 1 | 0.0755 | -2.95 | -0.87 | -2.01
DNTT (DNA nucleotidylexotransferase) | 2 | 0.858 | 0.61 | 0.494 | -1.29
CDC23 (cell division cycle 23) | 1 | -0.268 | -2.92 | -0.801 | 0.585
CDC23 (cell division cycle 23) | 2 | 0.258 | -0.639 | -0.246 | 1.4
XRCC4 (X-ray repair cross complementing 4) | 1 | 0.145 | -0.159 | -0.877 | -2.51
XRCC4 (X-ray repair cross complementing 4) | 2 | 0.87 | 3.74 | 0.596 | 1.69
ABL1 (ABL proto-oncogene 1, non-receptor tyrosine kinase) | 1 | -0.457 | -0.883 | -3.39 | -0.983
ABL1 (ABL proto-oncogene 1, non-receptor tyrosine kinase) | 2 | 1.46 | 4.45 | -2.03 | 0.088
NUDT1 (nudix hydrolase 1) | 1 | -0.765 | 0.174 | -7.4 | -0.958
NUDT1 (nudix hydrolase 1) | 2 | -0.234 | 0.577 | 0.0342 | -0.425
SUV39H1 (SUV39H1 histone lysine methyltransferase) | 1 | -0.851 | -0.519 | -1.72 | -1.63
SUV39H1 (SUV39H1 histone lysine methyltransferase) | 2 | 0.111 | 0.725 | -0.834 | -0.794
TDG (thymine DNA glycosylase) | 1 | -0.825 | -0.897 | -0.172 | -2.44
TDG (thymine DNA glycosylase) | 2 | -0.074 | 3.6 | 0.712 | 1.18

A stretch taken from the entries so far, for reference:
target gene | reagent | EdU z-score, cyclin E line, hydroxyurea | EdU z-score, parental, hydroxyurea | EdU z-score, cyclin E line, untreated | EdU z-score, parental, untreated
TNKS2 (tankyrase 2) | 2 | 0.461 | 1.3 | 1.34 | -0.667
ANKRD17 (ankyrin repeat domain 17) | 1 | 0.22 | -0.818 | -2.13 | -3.45
ANKRD17 (ankyrin repeat domain 17) | 2 | 1.53 | 0.44 | -0.973 | -1.11
